Among the data in PMC11213247 are binding values, retold here.

Amino acid sequences for entries named in this document (tags omitted). A change or cut given only in a name is not applied to a line headed by its entry.
UniProt Q69KN0: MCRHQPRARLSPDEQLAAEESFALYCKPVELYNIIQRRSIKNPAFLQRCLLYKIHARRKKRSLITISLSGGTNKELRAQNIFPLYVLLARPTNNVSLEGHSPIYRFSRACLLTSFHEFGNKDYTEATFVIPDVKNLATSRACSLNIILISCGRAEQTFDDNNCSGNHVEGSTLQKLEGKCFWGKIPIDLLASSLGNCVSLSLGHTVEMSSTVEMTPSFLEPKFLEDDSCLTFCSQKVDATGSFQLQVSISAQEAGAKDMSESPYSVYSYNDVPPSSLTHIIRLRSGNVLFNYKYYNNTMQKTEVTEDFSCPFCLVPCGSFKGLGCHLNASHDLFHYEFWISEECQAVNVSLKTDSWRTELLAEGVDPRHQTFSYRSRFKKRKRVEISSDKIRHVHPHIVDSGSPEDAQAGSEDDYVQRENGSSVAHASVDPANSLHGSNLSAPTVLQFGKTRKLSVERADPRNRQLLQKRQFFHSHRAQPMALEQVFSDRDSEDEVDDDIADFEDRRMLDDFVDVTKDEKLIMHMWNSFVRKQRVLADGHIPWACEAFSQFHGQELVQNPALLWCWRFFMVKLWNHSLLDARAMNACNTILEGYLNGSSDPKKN

No constants are given. Whether binding was seen depends on the method and setting. Binding seen in cells or lysates may run through a third protein. Binding can be weak; no strength is given. Sequences can lack the tags named with a protein.

The target in test [1] is T1, Venus-tagged JMJ703 (JMJ703-Venus) (rice (Oryza sativa)) (UniProt Q53WJ1).
T1 sequence: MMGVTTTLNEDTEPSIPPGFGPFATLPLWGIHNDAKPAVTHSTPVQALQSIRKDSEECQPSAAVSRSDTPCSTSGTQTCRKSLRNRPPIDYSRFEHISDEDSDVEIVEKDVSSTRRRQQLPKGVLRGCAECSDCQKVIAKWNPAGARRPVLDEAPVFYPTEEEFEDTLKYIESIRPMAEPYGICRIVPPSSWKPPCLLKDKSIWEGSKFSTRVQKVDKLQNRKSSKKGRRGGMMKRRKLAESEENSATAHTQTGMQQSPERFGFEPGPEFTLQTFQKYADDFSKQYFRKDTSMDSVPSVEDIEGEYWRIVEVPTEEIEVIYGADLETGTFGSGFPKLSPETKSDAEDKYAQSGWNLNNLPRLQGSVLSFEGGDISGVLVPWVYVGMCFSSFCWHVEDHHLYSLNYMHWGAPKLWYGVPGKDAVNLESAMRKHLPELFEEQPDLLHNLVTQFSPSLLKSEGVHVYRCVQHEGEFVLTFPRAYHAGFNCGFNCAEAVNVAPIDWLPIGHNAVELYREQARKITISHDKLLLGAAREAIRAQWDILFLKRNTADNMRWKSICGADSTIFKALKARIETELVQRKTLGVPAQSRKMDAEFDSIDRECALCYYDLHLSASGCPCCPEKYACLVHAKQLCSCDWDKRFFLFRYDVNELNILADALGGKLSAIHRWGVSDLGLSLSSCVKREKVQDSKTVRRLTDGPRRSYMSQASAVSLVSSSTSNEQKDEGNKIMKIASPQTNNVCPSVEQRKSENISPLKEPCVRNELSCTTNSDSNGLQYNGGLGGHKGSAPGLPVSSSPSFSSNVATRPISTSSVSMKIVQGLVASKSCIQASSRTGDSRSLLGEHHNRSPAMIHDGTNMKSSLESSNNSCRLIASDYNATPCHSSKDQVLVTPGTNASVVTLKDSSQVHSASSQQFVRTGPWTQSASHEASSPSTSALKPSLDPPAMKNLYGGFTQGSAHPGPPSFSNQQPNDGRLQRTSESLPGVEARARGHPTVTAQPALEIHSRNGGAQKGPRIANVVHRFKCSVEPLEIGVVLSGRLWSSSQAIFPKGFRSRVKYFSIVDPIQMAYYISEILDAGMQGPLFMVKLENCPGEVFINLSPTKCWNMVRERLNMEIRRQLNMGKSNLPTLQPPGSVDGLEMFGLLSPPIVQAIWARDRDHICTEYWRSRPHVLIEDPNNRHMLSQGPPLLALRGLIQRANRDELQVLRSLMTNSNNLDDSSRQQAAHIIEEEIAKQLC
Put plainly: co-IP; both proteins expressed in rice protoplasts; proteins extracted and subjected to Co-IP; detected by anti-HA and anti-GFP.

In test [2] the target is EMF2b-Flag-HA (rice (Oryza sativa)). Kind of test: co-IP; JMJ703 or JMJ704 transiently expressed in protoplasts of 35S::EMF2b-Flag-HA/Nip transgenic plants.
Test [3] addresses EMF2b, split firefly luciferase fusion (rice (Oryza sativa)) (UniProt Q69KN0). Put plainly: split reporter; split firefly luciferase complementation (SFLC); pairs of plasmids co-infiltrated in Nicotiana benthamiana leaves.

For the molecule “Hemagglutinin (HA)-tagged EMF2b (EMF2b-HA) (rice (Oryza sativa))”, the binding result in test [1] is reported as “binds”.

B1: JMJ703 transiently expressed in rice protoplasts (tag not shown) (protein, UniProt Q53WJ1 1-1238)
chain: T1 sequence
B1: in test [2], the binding result is “binds”.

B2: JmjC-domain-containing protein 703 (JMJ703), split firefly luciferase fusion (protein, UniProt Q53WJ1 1-1238)
chain: T1 sequence
With B2, the binding result in test [3] is reported as “binds”.
